# Several values for one entry are separate records, joined by “and”; a condition that tells them apart may be missing. Equal entries are not always repeated. The list shows a part of the results. For some assays here: The source does not settle which construct or isoform was used.
# By UniProt entry, the sequences of proteins in these tests, tags left out. Where a name states a change or a piece, a line headed by the entry shows the natural chain unless it says otherwise.
# UniProt O43379: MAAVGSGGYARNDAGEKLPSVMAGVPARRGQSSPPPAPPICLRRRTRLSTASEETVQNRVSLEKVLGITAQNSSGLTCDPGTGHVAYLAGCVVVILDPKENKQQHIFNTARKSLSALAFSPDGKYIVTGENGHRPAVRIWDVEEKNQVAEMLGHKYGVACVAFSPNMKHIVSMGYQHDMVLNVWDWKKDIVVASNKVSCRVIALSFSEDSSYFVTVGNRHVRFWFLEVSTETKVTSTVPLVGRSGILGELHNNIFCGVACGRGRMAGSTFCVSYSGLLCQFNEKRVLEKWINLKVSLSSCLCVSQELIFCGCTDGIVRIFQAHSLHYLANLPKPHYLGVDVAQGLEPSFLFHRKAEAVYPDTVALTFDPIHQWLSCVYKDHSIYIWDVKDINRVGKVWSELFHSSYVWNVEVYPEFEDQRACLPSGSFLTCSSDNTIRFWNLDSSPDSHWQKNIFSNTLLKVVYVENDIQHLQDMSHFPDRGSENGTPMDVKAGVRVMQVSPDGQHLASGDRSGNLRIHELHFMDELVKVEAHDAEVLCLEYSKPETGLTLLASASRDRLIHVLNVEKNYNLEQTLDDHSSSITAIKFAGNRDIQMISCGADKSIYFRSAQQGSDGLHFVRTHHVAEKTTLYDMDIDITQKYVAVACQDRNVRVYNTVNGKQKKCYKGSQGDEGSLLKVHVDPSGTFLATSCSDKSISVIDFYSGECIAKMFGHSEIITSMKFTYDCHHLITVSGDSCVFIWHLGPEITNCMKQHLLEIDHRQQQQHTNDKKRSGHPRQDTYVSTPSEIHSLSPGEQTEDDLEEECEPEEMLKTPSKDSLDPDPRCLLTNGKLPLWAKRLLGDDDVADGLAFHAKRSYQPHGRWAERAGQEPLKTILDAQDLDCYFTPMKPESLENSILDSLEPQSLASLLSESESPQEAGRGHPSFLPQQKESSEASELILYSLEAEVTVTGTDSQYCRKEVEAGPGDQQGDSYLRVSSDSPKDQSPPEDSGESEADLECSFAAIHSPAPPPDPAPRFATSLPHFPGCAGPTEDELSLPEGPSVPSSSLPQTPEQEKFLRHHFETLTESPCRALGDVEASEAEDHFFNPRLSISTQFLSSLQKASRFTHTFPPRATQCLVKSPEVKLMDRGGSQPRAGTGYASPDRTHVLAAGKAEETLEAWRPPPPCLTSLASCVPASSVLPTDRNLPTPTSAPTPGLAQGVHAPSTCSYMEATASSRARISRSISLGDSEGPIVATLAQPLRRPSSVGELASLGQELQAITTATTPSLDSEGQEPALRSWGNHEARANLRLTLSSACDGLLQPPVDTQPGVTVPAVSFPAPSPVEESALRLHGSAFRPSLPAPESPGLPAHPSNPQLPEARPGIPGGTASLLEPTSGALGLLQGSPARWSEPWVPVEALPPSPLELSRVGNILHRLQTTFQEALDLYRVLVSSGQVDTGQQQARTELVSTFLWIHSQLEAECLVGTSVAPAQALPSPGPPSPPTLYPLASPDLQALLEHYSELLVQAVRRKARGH
# Columns and labels:
# Assay in all cases: protein microarray (ProtoArray v5.0), streptavidin-Alexa Fluor 647
# Settings in all cases: 3'-biotin; 20 mM Tris (pH 7.5), 5 mM MgCl2, 100 mM KCl, 0.1% Tween-20, A/T-rich and random oligonucleotide blockers; temperature not stated; high values mean tight binding
# WDR18 = molecular target: T1, WDR18 (UniProt Q9BV38)
# T1 sequence: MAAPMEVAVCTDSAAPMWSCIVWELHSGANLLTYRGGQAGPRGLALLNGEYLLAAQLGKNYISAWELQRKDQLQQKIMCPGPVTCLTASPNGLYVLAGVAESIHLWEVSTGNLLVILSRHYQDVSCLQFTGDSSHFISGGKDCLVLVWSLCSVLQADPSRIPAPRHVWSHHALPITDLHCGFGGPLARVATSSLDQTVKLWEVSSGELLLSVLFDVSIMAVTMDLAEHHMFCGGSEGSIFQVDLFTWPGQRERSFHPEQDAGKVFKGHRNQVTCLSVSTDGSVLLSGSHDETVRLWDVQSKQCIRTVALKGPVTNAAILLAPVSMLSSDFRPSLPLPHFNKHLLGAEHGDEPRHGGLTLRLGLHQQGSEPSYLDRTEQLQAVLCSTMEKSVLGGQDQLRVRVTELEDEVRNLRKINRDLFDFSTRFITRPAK
# WDR23 (human) = tested on: WDR23 (human)
# WDR24 (human) = tested on: WDR24 (human)
# WDR25 (human) = tested on: WDR25 (human)
# WDR31 (human) = tested on: WDR31 (human)
# WDR34 (human) = tested on: WDR34 (human)
# WDR62 = WDR62 (UniProt O43379)
# WDR92 (human) = tested on: WDR92 (human)
# WFDC2 (human) = tested on: WFDC2 (human)
# WFDC6 (human) = tested on: WFDC6 (human)
# WIF1 (human) = tested on: WIF1 (human)
# [1] = tested on: WNT1-inducible-signaling pathway protein 1 (human)
# WTAP (human) = tested on: WTAP (human)
# [2] = tested on: WW domain-containing oxidoreductase (human)
# WWTR1 (human) = tested on: WWTR1 (human)
# [3] = tested on: Williams-Beuren syndrome chromosomal region 28 protein (human)
# XCL1 (human) = tested on: XCL1 (human)
# XKR8 (human) = tested on: XKR8 (human)
# XTP3TPA (human) = tested on: XTP3TPA (human)
# YIPF1 (human) = tested on: YIPF1 (human)
sequence,measurement,setting,value
GGGAGGCTGAGGCAGG [G4-1 biotinylated (PQS2)],binding signal,WDR18,-0.342 z-score
same,binding signal,WDR23 (human),-0.227 z-score
same,binding signal,WDR24 (human),-0.323 z-score
same,binding signal,WDR25 (human),-0.322 z-score
same,binding signal,WDR31 (human),-0.311 z-score
same,binding signal,WDR34 (human),-0.332 z-score
same,binding signal,WDR62,-0.295 z-score
same,binding signal,WDR92 (human),-0.339 z-score
same,binding signal,WFDC2 (human),-0.326 z-score
same,binding signal,WFDC6 (human),-0.351 z-score
same,binding signal,WIF1 (human),-0.328 z-score
same,binding signal,[1],-0.335 z-score
same,binding signal,WTAP (human),-0.343 z-score and -0.331 z-score
same,binding signal,[2],-0.33 z-score
same,binding signal,WWTR1 (human),-0.322 z-score
same,binding signal,[3],-0.287 z-score
same,binding signal,XCL1 (human),-0.328 z-score
same,binding signal,XKR8 (human),-0.266 z-score
same,binding signal,XTP3TPA (human),-0.291 z-score
same,binding signal,YIPF1 (human),-0.341 z-score

# Some of the entries so far, tab-delimited.
sequence	measurement	setting	value
GGGAGGCTGAGGCAGG [G4-1 biotinylated (PQS2)]	binding signal	WDR18	-0.342 z-score
same	binding signal	[1]	-0.335 z-score
